Experimental data taken from paper PMC7819943, “Rice protein-binding microarrays: a tool to detect cis-acting elements near promoter regions in rice”.
This is one part of the list.

Amino acid sequences for entries named in this document (tags omitted).
UniProt Q0JBA9, entry or part of it: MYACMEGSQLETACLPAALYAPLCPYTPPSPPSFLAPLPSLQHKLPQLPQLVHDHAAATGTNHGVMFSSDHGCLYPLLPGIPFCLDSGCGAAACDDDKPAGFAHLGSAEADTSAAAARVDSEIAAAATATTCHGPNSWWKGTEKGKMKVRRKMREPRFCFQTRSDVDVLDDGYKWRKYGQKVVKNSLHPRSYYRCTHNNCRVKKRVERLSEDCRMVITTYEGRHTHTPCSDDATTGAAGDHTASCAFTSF

What follows are sequences tested against OsWRKY34 (Oryza sativa, UniProt Q0JBA9 1-250) (assay: protein-binding microarray (RPBM); PBS, 2% BSA, 51.3 ng/ul salmon testes DNA, 50 uM zinc acetate, 200 nM TF, 25 C, 1 h; high values mean tight binding). Conditions: protein: recombinant; tags: N-terminal polyhistidine and DsRed monomer fusion (pET32a); label: CyDye5-dUTP incorporated in the synthesized complementary strand; 3' TTTTT single-stranded linker to array surface; dsDNA, one strand shown.
Procedure, shortened: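 Using Ni–NTA, transcription factors fused N-terminally to polyhistidine and DsRed were purified after expression in E. coli BL21-CodonPlus. These were incubated at 200 nM with a blocked, double-stranded custom Agilent array for 1 h at 25 °C in a buffer containing 50 µM zinc acetate, and the array was washed. The binding signal is per-feature fluorescence intensity (arbitrary units) on an Axon 4000B scanner.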

“ACTATGGCCTGGTTTAGTTCCCAACTTTTTCTTTAAACTTCGGAGTCACCTAGTGCAG” was tested. Which binding signal did it give?
Its binding signal is 9850 fluorescence intensity (a.u.).

With “TGCTGGTGAGCTAACGTGACCGAACCCAACATTATGTTCCCGGAGTCACCTAGTGCAG” as the sequence, how does the binding signal read?
Its binding signal is 8820 fluorescence intensity (a.u.).

With “AAGTTATGTTTGTTTTGTTGCATCATGCTTGTTATACTTTCGGAGTCACCTAGTGCAG” as the sequence, how does the binding signal read?
Its binding signal is 10800 fluorescence intensity (a.u.).

Which binding signal does the source give for “GGTTATGGGCGGGTTGAGCAATGTTTTTCATGATTAGTCTCGGAGTCACCTAGTGCAG” here?
The binding signal was 18600 fluorescence intensity (a.u.).

With “GACATGTGGGGTTTATTTTTGTTCTTGTCACGTAAACGTCCGGAGTCACCTAGTGCAG” as the sequence, how does the binding signal read?
The binding signal was 10000 fluorescence intensity (a.u.).

With “CTCACACACCGGCGACCACCACTCCACTCTCCACCCACCCCGGAGTCACCTAGTGCAG” as the sequence, how does the binding signal read?
Its binding signal is 9310 fluorescence intensity (a.u.).

How did the binding signal turn out when “TCGGCTTTGCTTCTTCGGTCGCTTTTTTTTTTGGCTGTTCCGGAGTCACCTAGTGCAG” was run?
Its binding signal is 9160 fluorescence intensity (a.u.).

With “GATAACAAACGCACGGTTCTCATCTTCCATCGTCACTCACCGGAGTCACCTAGTGCAG” as the sequence, how does the binding signal read?
Its binding signal is 8680 fluorescence intensity (a.u.).

How did the binding signal turn out when “TGTTCTTGTTGATTTTTGTGTGTTTGTTTGACTGAAAGGTCGGAGTCACCTAGTGCAG” was run?
The binding signal was 8980 fluorescence intensity (a.u.).

How did the binding signal turn out when “GCTTGATTTATTATTTACCATGTTAAAAATATTTATTTGTCGGAGTCACCTAGTGCAG” was run?
The binding signal was 9270 fluorescence intensity (a.u.).

With “CCTTGGCCACCACCACTACTGCCCTTGATGGTATCCATACCGGAGTCACCTAGTGCAG” as the sequence, how does the binding signal read?
Its binding signal is 8290 fluorescence intensity (a.u.).

For “TCCTCCTCCTCGCCGCCGCCGCCGCCGCCGTCGCCGTCGACGGAGTCACCTAGTGCAG”, which binding signal is on record?
Its binding signal is 8030 fluorescence intensity (a.u.).

Which binding signal does the source give for “CATGACCGGCCACCACCATTGCCACCGGCCGATCTCCTCTCGGAGTCACCTAGTGCAG” here?
The binding signal was 10300 fluorescence intensity (a.u.).

For “CCACGGCGCCACGCGCGCGCATCATTACACATCACGTACACGGAGTCACCTAGTGCAG”, which binding signal is on record?
Its binding signal is 8100 fluorescence intensity (a.u.).

For “CGCACACAGACCAACTGACAGCCTGGACCCACAACTCAGCCGGAGTCACCTAGTGCAG”, which binding signal is on record?
Its binding signal is 8270 fluorescence intensity (a.u.).

For “TGTTCAGAGTATATACCATTATGATTTTATCTACCGGATCCGGAGTCACCTAGTGCAG”, which binding signal is on record?
The binding signal was 8360 fluorescence intensity (a.u.).

Which binding signal does the source give for “CTGCTGCCAACCCATCCCCAACACGCAACATCTCTCTGCCCGGAGTCACCTAGTGCAG” here?
Its binding signal is 8110 fluorescence intensity (a.u.).

How did the binding signal turn out when “CCATTGTTAGGGTTAAGTCTTATTTCACCACATCGTTTTTCGGAGTCACCTAGTGCAG” was run?
The binding signal was 8740 fluorescence intensity (a.u.).

How did the binding signal turn out when “TATCAATTGCTCTTGTCATCTCTGATCTGCCTGCCGCTGCCGGAGTCACCTAGTGCAG” was run?
The binding signal was 9070 fluorescence intensity (a.u.).

How did the binding signal turn out when “ATCTTTTTCTACTATCACTATATCATATTCTATTTTTTTTCGGAGTCACCTAGTGCAG” was run?
The binding signal was 10500 fluorescence intensity (a.u.).

How did the binding signal turn out when “TCGTGCCTTTTCCCTCGCTGCATATTTATACCGCTACTCACGGAGTCACCTAGTGCAG” was run?
Its binding signal is 8640 fluorescence intensity (a.u.).

Which binding signal does the source give for “CATTCCACTTTCAAGTTTCAACTAGCCAGGTACAGCATGTCGGAGTCACCTAGTGCAG” here?
Its binding signal is 8660 fluorescence intensity (a.u.).

“TTTTTTCCTGTTACACGTTTAGCTTATACGTTGGCCTCATCGGAGTCACCTAGTGCAG” was tested. Which binding signal did it give?
The binding signal was 10800 fluorescence intensity (a.u.).

With “GAGTCCTCCATCGCGTCCCTCATCGACCGCGCCACCTCCACGGAGTCACCTAGTGCAG” as the sequence, how does the binding signal read?
The binding signal was 9410 fluorescence intensity (a.u.).

With “CTTTTTTTTAATGTATTGATGCTTCTTTTCTAGTTTGTACCGGAGTCACCTAGTGCAG” as the sequence, how does the binding signal read?
Its binding signal is 9060 fluorescence intensity (a.u.).

How did the binding signal turn out when “TGTCATTGGCTTTCCCGCGCTCCCTGCCTTGTCGCTCTCTCGGAGTCACCTAGTGCAG” was run?
Its binding signal is 10600 fluorescence intensity (a.u.).

“ATCTCCAATATACTGTCTTTACAGGTTCTTCGCTGTCTTGCGGAGTCACCTAGTGCAG” was tested. Which binding signal did it give?
The binding signal was 10200 fluorescence intensity (a.u.).

“CCTCCGCTTCTTCCTCACGCAGCTCTCGCCTCGCCTCGCCCGGAGTCACCTAGTGCAG” was tested. Which binding signal did it give?
Its binding signal is 8620 fluorescence intensity (a.u.).

For “CCCGCCGCCTGGGTTTCGTGCCGATTTTGATTTCCTTTTTCGGAGTCACCTAGTGCAG”, which binding signal is on record?
The binding signal was 9050 fluorescence intensity (a.u.).

“TCCACCTCGTCCGTCCATCGCGTGGGCCCCACCCCGACCGCGGAGTCACCTAGTGCAG” was tested. Which binding signal did it give?
The binding signal was 8070 fluorescence intensity (a.u.).

For “TACTATTCCCTCAAGTTCTTCATTTCTTATCATTTTGGACCGGAGTCACCTAGTGCAG”, which binding signal is on record?
The binding signal was 8310 fluorescence intensity (a.u.).

“GTGGCCTCGCCCCGTCCTGTGACTCCTTGGCCCGGCGCGCCGGAGTCACCTAGTGCAG” was tested. Which binding signal did it give?
The binding signal was 12000 fluorescence intensity (a.u.).

How did the binding signal turn out when “TTCTTTGTTGGATTGATGATCGCTTTTGTGTGGGAGAGGTCGGAGTCACCTAGTGCAG” was run?
Its binding signal is 9380 fluorescence intensity (a.u.).

With “GTTAGTTTTTAAGTTCGTTCGCTTTTGGAAATACAGATCCCGGAGTCACCTAGTGCAG” as the sequence, how does the binding signal read?
Its binding signal is 13500 fluorescence intensity (a.u.).

How did the binding signal turn out when “TGTTAGTATTAGGGTGCTTTTGGGTTTGGGGTTTCTGCCACGGAGTCACCTAGTGCAG” was run?
The binding signal was 24200 fluorescence intensity (a.u.).

With “ACTTTTATGTTGCTTGACGGCAGTCATCAACCCAGCAATACGGAGTCACCTAGTGCAG” as the sequence, how does the binding signal read?
The binding signal was 8100 fluorescence intensity (a.u.).

How did the binding signal turn out when “AGTGTGTTCCTCTTCTCTTAGCCCCAAATTTGCGATCCAACGGAGTCACCTAGTGCAG” was run?
The binding signal was 10100 fluorescence intensity (a.u.).

How did the binding signal turn out when “TCTTGTTCATATTGTTCAGTTAAAGCAGTTGATCTATTTTCGGAGTCACCTAGTGCAG” was run?
Its binding signal is 8220 fluorescence intensity (a.u.).

How did the binding signal turn out when “GCCTCCAACCCGCGCATCCTGTGCGCCCGCATCGACCGCTCGGAGTCACCTAGTGCAG” was run?
The binding signal was 9340 fluorescence intensity (a.u.).

How did the binding signal turn out when “CTCCGGTCCGTTAGCTCACTCAACCCATCTCCACCCAAATCGGAGTCACCTAGTGCAG” was run?
The binding signal was 10100 fluorescence intensity (a.u.).

For “GGTACGTTATCCGTGCATGAGTCGATTTTTAATTTTGTTCCGGAGTCACCTAGTGCAG”, which binding signal is on record?
The binding signal was 8650 fluorescence intensity (a.u.).

For “CTGGCCTCCCCGCCCCGCCGCCGCCGCCGCCGCATCACCCCGGAGTCACCTAGTGCAG”, which binding signal is on record?
Its binding signal is 10400 fluorescence intensity (a.u.).
